Test results: the supplement of paper PMC11438910
The other results are listed elsewhere or left out. Most of these values are background signal.

Experiments:
Experiment in all cases: fluorescence intensity of antibody binding to polysaccharide-coupled beads; higher = stronger binding
[1] = target: pneumococcal polysaccharide Pn28A
[2] = target: pneumococcal polysaccharide Pn28F
[3] = target: pneumococcal polysaccharide Pn29
[4] = target: pneumococcal polysaccharide Pn3
[5] = target: pneumococcal polysaccharide Pn31
[6] = target: pneumococcal polysaccharide Pn32A
[7] = target: pneumococcal polysaccharide Pn32F
[8] = target: pneumococcal polysaccharide Pn33A
[9] = target: pneumococcal polysaccharide Pn33B
[10] = target: pneumococcal polysaccharide Pn33C
[11] = target: pneumococcal polysaccharide Pn33D
[12] = target: pneumococcal polysaccharide Pn33F
[13] = antibody concentration 2337.65 ng/mL
[14] = antibody concentration 12500 ng/mL
[15] = antibody concentration 0.1 ng/mL
[16] = antibody concentration 0.534724 ng/mL
[17] = antibody concentration 2.8593 ng/mL
[18] = antibody concentration 15.2894 ng/mL
[19] = antibody concentration 81.7561 ng/mL
[20] = antibody concentration 437.17 ng/mL

B1: 4-127.1 (protein)
chain 1: QVQLQESGPGLVKPSETLSLTCAVSDYSINTGHGWTWIRQPPGKGLEWIGYIGGSSGSPNYNPSLKSRVTISKDTSKNELSLKLNSVTAADTAVYYCARRIPADRSGNDFWGQGVLVTVSS
chain 2: QSVLTQPPSVSGDPGQRVTISCTGSSSNIGGFYGYWYQQFPGTAPKLLIYDNNKRPSGISDRFSGSKSGTSASLTITGLQPGDEADYYCGSWDSSLSAHVFGSGTKLTVL
- fluorescence intensity [1, 13]: 31.8 MFI
- fluorescence intensity [1, 14]: 35 MFI
- fluorescence intensity [2, 15]: 29.5 MFI
- fluorescence intensity [2, 16]: 30 MFI
- fluorescence intensity [2, 17]: 30 MFI
- fluorescence intensity [2, 18]: 29.8 MFI
- fluorescence intensity [2, 19]: 27.5 MFI
- fluorescence intensity [2, 20]: 30.8 MFI
- fluorescence intensity [2, 13]: 32 MFI
- fluorescence intensity [2, 14]: 48.2 MFI
- fluorescence intensity [3, 15]: 15 MFI
- fluorescence intensity [3, 16]: 16.5 MFI
- fluorescence intensity [3, 17]: 17 MFI
- fluorescence intensity [3, 18]: 17 MFI
- fluorescence intensity [3, 19]: 16 MFI
- fluorescence intensity [3, 20]: 17.5 MFI
- fluorescence intensity [3, 13]: 19 MFI
- fluorescence intensity [3, 14]: 43 MFI
- fluorescence intensity [4, 15]: 12.5 MFI
- fluorescence intensity [4, 16]: 14.5 MFI
- fluorescence intensity [4, 17]: 26 MFI
- fluorescence intensity [4, 18]: 92.5 MFI
- fluorescence intensity [4, 19]: 428 MFI
- fluorescence intensity [4, 20]: 1980 MFI
- fluorescence intensity [4, 13]: 4740 MFI
- fluorescence intensity [4, 14]: 8780 MFI
- fluorescence intensity [5, 15]: 13.5 MFI
- fluorescence intensity [5, 16]: 15.5 MFI
- fluorescence intensity [5, 17]: 14.5 MFI
- fluorescence intensity [5, 18]: 14.5 MFI
- fluorescence intensity [5, 19]: 14 MFI
- fluorescence intensity [5, 20]: 15 MFI
- fluorescence intensity [5, 13]: 18.5 MFI
- fluorescence intensity [5, 14]: 43.5 MFI
- fluorescence intensity [6, 15]: 16.5 MFI
- fluorescence intensity [6, 16]: 17.5 MFI
- fluorescence intensity [6, 17]: 17 MFI
- fluorescence intensity [6, 18]: 17 MFI
- fluorescence intensity [6, 19]: 18 MFI
- fluorescence intensity [6, 20]: 18 MFI
- fluorescence intensity [6, 13]: 21.5 MFI
- fluorescence intensity [6, 14]: 32 MFI
- fluorescence intensity [7, 15]: 28 MFI
- fluorescence intensity [7, 16]: 29 MFI
- fluorescence intensity [7, 17]: 26.5 MFI
- fluorescence intensity [7, 18]: 30.5 MFI
- fluorescence intensity [7, 19]: 30 MFI
- fluorescence intensity [7, 20]: 31 MFI
- fluorescence intensity [7, 13]: 39.8 MFI
- fluorescence intensity [7, 14]: 58.2 MFI
- fluorescence intensity [8, 15]: 17.5 MFI
- fluorescence intensity [8, 16]: 19.2 MFI
- fluorescence intensity [8, 17]: 18.8 MFI
- fluorescence intensity [8, 18]: 18 MFI
- fluorescence intensity [8, 19]: 18.5 MFI
- fluorescence intensity [8, 20]: 19.2 MFI
- fluorescence intensity [8, 13]: 27 MFI
- fluorescence intensity [8, 14]: 120 MFI
- fluorescence intensity [9, 15]: 18.5 MFI
- fluorescence intensity [9, 16]: 18.5 MFI
- fluorescence intensity [9, 17]: 17.5 MFI
- fluorescence intensity [9, 18]: 17.5 MFI
- fluorescence intensity [9, 19]: 17.2 MFI
- fluorescence intensity [9, 20]: 18 MFI
- fluorescence intensity [9, 13]: 18 MFI
- fluorescence intensity [9, 14]: 19.5 MFI
- fluorescence intensity [10, 15]: 20 MFI
- fluorescence intensity [10, 16]: 20.5 MFI
- fluorescence intensity [10, 17]: 18.8 MFI
- fluorescence intensity [10, 18]: 19 MFI
- fluorescence intensity [10, 19]: 19 MFI
- fluorescence intensity [10, 20]: 19.5 MFI
- fluorescence intensity [10, 13]: 21 MFI
- fluorescence intensity [10, 14]: 30.2 MFI
- fluorescence intensity [11, 15]: 15.8 MFI
- fluorescence intensity [11, 16]: 16.5 MFI
- fluorescence intensity [11, 17]: 17 MFI
- fluorescence intensity [11, 18]: 17.5 MFI
- fluorescence intensity [11, 19]: 16.2 MFI
- fluorescence intensity [11, 20]: 15 MFI
- fluorescence intensity [11, 13]: 16 MFI
- fluorescence intensity [11, 14]: 19.5 MFI
- fluorescence intensity [12, 15]: 12.5 MFI
- fluorescence intensity [12, 16]: 13.5 MFI
- fluorescence intensity [12, 17]: 13.5 MFI
- fluorescence intensity [12, 18]: 12 MFI
- fluorescence intensity [12, 19]: 13 MFI
- fluorescence intensity [12, 20]: 15.5 MFI
- fluorescence intensity [12, 13]: 20.8 MFI
- fluorescence intensity [12, 14]: 73 MFI
